According to article PMC5454368:
These are yes or no findings as the source states them, for the method shown. Binding seen in cells or lysates may run through a third protein. Some results given as binding are weak or reduced against the parent protein; the word gives no strength.

Amino acid sequences for entries named in this document (tags omitted).
UniProt Q8IXJ9: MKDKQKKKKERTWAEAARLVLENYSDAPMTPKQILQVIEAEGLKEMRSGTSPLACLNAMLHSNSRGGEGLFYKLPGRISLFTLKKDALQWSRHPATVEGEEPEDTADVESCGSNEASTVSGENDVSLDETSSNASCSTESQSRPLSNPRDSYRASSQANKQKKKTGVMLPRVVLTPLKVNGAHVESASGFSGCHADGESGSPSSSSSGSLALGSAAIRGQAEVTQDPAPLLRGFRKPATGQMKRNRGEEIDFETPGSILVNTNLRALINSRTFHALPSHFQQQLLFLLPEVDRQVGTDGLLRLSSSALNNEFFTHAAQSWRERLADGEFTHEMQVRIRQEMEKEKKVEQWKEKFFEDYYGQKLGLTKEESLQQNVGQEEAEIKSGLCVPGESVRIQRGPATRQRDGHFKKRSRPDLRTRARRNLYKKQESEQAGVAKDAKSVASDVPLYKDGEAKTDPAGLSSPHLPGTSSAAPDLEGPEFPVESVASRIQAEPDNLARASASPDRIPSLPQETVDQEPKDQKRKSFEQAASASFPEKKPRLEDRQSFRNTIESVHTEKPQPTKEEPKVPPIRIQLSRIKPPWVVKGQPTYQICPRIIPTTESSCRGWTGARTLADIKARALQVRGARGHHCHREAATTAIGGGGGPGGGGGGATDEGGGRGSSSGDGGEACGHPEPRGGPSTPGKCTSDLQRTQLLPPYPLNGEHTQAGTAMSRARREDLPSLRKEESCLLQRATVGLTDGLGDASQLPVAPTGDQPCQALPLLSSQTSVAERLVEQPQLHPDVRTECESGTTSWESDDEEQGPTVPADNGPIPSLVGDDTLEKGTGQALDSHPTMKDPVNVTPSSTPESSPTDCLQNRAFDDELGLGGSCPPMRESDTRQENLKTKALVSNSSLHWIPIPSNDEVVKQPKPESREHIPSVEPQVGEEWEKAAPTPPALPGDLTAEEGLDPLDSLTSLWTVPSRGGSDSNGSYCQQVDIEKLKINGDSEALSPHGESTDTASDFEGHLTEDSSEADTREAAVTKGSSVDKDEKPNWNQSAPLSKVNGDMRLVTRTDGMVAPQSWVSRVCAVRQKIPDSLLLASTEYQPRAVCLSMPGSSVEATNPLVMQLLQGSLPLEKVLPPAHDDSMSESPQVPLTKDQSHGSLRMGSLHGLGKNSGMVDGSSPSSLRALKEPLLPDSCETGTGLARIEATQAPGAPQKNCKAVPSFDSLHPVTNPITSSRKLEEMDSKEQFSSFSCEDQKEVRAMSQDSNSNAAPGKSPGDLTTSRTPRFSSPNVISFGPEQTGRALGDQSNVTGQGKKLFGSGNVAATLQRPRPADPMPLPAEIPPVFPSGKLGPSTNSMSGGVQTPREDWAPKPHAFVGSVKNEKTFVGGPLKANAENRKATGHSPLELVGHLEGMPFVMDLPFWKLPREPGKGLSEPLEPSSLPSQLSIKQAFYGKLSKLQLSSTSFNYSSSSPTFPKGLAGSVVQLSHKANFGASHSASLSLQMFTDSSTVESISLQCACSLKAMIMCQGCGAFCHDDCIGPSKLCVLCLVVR
UniProt Q76L83: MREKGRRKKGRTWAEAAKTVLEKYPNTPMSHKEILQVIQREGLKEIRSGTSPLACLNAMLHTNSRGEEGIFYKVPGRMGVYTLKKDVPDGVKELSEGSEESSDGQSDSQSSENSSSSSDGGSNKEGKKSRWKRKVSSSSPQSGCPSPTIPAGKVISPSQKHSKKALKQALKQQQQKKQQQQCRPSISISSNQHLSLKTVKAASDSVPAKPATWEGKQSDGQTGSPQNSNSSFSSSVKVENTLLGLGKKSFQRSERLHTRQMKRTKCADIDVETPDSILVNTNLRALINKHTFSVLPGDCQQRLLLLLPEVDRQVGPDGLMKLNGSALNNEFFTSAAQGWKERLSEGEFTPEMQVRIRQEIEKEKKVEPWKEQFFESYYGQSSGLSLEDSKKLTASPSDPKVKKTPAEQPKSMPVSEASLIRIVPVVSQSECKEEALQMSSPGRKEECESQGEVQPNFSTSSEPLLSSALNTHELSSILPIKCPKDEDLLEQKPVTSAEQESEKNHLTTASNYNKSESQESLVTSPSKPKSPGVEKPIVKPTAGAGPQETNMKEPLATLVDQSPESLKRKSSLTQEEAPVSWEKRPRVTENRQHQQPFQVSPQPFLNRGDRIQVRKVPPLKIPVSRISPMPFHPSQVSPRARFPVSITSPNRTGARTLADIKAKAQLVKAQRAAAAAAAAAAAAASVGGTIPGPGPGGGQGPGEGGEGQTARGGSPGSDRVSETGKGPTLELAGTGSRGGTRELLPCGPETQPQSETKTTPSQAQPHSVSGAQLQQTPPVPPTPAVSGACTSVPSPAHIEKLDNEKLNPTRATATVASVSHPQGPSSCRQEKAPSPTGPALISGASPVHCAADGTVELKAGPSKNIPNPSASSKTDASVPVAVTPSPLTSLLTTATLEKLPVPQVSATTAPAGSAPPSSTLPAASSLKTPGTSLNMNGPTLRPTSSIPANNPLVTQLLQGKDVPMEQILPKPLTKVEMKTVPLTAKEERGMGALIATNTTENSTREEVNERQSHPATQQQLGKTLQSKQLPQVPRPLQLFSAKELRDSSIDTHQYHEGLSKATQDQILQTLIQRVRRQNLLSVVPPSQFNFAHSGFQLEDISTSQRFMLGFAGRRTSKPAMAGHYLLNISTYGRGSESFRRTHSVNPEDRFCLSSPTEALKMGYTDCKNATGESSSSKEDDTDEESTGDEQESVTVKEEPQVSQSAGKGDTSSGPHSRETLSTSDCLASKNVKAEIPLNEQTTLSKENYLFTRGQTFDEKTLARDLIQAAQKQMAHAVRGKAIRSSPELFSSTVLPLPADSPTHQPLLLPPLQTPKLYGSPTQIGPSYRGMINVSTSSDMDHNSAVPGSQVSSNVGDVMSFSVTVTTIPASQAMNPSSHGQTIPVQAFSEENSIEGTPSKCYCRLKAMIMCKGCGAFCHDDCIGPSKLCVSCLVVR
UniProt Q15022: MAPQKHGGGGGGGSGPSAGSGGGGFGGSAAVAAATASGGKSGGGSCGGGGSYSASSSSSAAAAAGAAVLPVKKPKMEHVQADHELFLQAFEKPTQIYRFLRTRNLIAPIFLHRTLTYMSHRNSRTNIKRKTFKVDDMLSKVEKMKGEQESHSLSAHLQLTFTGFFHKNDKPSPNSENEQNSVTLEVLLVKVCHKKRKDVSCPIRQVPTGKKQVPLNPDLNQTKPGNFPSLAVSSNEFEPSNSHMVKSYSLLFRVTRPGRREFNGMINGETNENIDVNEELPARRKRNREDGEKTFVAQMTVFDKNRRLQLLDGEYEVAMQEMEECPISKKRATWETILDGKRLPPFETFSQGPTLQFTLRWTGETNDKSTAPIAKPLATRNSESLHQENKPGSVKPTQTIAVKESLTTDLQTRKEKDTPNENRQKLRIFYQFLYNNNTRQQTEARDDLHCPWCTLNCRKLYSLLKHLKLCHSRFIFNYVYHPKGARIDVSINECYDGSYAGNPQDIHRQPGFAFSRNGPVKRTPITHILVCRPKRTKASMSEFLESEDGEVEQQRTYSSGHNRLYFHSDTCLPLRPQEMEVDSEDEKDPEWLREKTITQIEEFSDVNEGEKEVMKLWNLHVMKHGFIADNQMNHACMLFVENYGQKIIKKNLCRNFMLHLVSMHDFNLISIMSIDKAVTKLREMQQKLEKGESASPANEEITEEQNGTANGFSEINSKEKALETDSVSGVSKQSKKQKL
UniProt Q92560: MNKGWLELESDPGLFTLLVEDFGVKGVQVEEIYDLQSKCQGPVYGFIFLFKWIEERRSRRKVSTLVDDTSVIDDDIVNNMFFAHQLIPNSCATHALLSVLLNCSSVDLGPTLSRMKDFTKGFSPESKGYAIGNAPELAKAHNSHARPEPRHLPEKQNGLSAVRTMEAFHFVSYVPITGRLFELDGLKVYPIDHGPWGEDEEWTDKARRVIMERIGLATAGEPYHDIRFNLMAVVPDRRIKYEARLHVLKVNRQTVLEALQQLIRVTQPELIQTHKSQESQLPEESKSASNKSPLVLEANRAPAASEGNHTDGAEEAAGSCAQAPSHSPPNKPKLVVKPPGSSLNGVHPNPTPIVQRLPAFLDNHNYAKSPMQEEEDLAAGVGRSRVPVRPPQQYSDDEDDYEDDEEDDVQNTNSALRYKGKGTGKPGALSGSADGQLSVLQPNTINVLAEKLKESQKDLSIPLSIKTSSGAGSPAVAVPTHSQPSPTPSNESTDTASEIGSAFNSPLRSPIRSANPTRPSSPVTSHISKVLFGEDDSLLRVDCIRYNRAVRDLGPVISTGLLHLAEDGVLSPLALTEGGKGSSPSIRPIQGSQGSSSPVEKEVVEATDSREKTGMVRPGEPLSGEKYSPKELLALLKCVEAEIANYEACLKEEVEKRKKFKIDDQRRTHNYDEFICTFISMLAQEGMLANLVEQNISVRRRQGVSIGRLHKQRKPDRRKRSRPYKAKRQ
UniProt Q01196: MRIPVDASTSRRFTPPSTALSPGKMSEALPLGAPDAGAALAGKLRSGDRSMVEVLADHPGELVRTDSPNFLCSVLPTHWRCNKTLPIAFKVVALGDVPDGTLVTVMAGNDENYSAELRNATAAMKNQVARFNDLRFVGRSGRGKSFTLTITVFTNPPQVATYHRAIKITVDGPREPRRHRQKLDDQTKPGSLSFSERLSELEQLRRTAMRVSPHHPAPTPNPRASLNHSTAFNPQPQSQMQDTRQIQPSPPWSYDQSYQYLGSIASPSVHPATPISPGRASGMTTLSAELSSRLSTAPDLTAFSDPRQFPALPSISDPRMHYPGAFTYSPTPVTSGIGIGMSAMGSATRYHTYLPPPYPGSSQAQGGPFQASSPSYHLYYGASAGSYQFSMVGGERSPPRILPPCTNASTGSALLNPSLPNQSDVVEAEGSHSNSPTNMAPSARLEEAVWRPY

What was measured:
ASXL1 = ASXL1 (UniProt Q8IXJ9); assay: co-IP; co-immunoprecipitation (Supplementary Fig. 6a,b); cells, baits and conditions not told in the text shown
ASXL2 = ASXL2 (UniProt Q76L83); assay: as above

binding (ASXL1)	binding (ASXL2)	Substance
binds	–	SUZ12 (from UniProt Q15022 1-739)
binds	–	BAP1 (from UniProt Q92560 1-729)
–	no binding	RUNX1 (from UniProt Q01196 1-453)
